# Construct, isoform or probe ends are uncertain for at least one entry. At least one verdict rests on a figure or table, not on a statement of the authors.
# System: CsrA + Hfq
# Experiment: EMSA
# Conditions: 6 uM CsrA + Hfq, likely ternary complex; 10 nM denatured RNA, 0-6 uM CsrA, 0-3 uM Hfq; 1X binding buffer (10 mM Tris-HCl pH 7.5, 10 mM MgCl2, 100 mM KCl) plus CsrA dilution buffer, 11% glycerol, 20 mM DTT; recombinant protein; label: internal 32P-UTP
sequence,measurement,value
GAUGAAGCAAGGGGGUGCCCCAUGCGUCAGUUUUAUCAGCACUAUUUUACCGCGACAGCGAAGUUGUGCUGGUUGCGUUGGUUAAGCGUCCCACAACGAUUAACCAUGCUUGAAGGACUGAUGCAGUGGGAUGACCGCAAUUCUGAAAGUUGACUUGCCUGCAUCAUGUGUGACUGAGUAUUGGUGUAAAAUCACCCGCCAGCAGAUUAUACCUGCUGGUUUUUUUU [SgrS],binding result,binds

# — publication PMC10729762
